Data: the supplement of paper PMC4604168 (melanoma cell lines)
This is one part of the list. Single values are uncertain, as repeats are few or missing.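 Imaging used 1,536-well plates; nuclei positive for cleaved PARP by antibody were divided by total DNA-stained nuclei to yield the apoptosis fraction. Doses for screening kept most cells viable, and cell lines differ markedly in resting and induced cleaved-PARP levels.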

Key:
Assay in all cases: cleaved PARP positive nuclei fraction relative to DMSO control; melanoma cells; higher = more apoptosis
Details in all cases: library dose: low library concentration; 72 h
[1] = system: COLO792
[2] = system: COLO800
[3] = system: COLO829
[4] = system: G361
[5] = system: IPC-298
[6] = system: IST-MEL1
[7] = system: LB2518-MEL
[8] = system: LOXIMVI
[9] = system: MZ2-MEL
[10] = system: MeWo
[11] = system: RPMI7951
[12] = system: RVH-421
[13] = system: SkMel28
[14] = system: SkMel2
[15] = system: SkMel30
[16] = system: SkMel5
[17] = system: UACC257
[18] = system: UACC62

| SMILES | cleaved PARP positive nuclei fraction [1] | cleaved PARP positive nuclei fraction [2] | cleaved PARP positive nuclei fraction [3] | cleaved PARP positive nuclei fraction [4] | cleaved PARP positive nuclei fraction [5] | cleaved PARP positive nuclei fraction [6] | cleaved PARP positive nuclei fraction [7] | cleaved PARP positive nuclei fraction [8] | cleaved PARP positive nuclei fraction [9] | cleaved PARP positive nuclei fraction [10] | cleaved PARP positive nuclei fraction [11] | cleaved PARP positive nuclei fraction [12] | cleaved PARP positive nuclei fraction [13] | cleaved PARP positive nuclei fraction [14] | cleaved PARP positive nuclei fraction [15] | cleaved PARP positive nuclei fraction [16] | cleaved PARP positive nuclei fraction [17] | cleaved PARP positive nuclei fraction [18] |
| --- | --- | --- | --- | --- | --- | --- | --- | --- | --- | --- | --- | --- | --- | --- | --- | --- | --- | --- |
| Clc1ccc(Nc2nnc(Cc3ccncc3)c3ccccc23)cc1 [vatalanib] + CCc1ccc(CCOc2ccc(CC3SC(=O)NC3=O)cc2)nc1 [pioglitazone] (first compound 2 µM, partner dose 2 µM) | 60.5% | 87.4% | 102% | 139% | 106% | 82.5% | 73.8% | 164% | 111% | 72.2% | 69.7% | 208% | 28.1% | 75.1% | 78.2% | 172% | 62.8% | 60.9% |
| Clc1ccc(Nc2nnc(Cc3ccncc3)c3ccccc23)cc1 [vatalanib] + O=C(Nc1ccccc1)c1cc([N+](=O)[O-])ccc1Cl [GW9662] (first compound 2 µM, partner dose 2 µM) | 70.7% | 49.7% | 193% | 156% | 46.1% | 92.2% | 111% | 155% | 131% | 126% | 83.5% | 134% | 91.5% | 56.5% | 121% | 79% | 67.6% | 135% |
| C=CCNC1=C2C[C@@H](C)C[C@H](OC)[C@H](O)[C@@H](C)/C=C(\C)[C@H](OC(N)=O)[C@@H](OC)/C=C\C=C(/C)C(=O)NC(=CC1=O)C2=O [Tanespimycin] + COC(=O)c1sccc1S(=O)(=O)Nc1ccc(Nc2ccccc2)cc1OC [GSK0660] (first compound 0.002 µM, partner dose 1 µM) | 62.9% | 75.7% | 87.2% | 113% | 69.8% | 146% | 31.3% | 87.4% | 47.2% | 99.2% | 89.4% | 106% | 80.3% | 113% | 61.5% | 166% | 199% | 65.7% |
| C=CCNC1=C2C[C@@H](C)C[C@H](OC)[C@H](O)[C@@H](C)/C=C(\C)[C@H](OC(N)=O)[C@@H](OC)/C=C\C=C(/C)C(=O)NC(=CC1=O)C2=O [Tanespimycin] + N#Cc1c(O)c2c(-c3ccc(-c4ccccc4O)cc3)csc2[nH]c1=O [A769662] (first compound 0.002 µM, partner dose 2 µM) | 40.7% | 126% | 121% | 93.8% | 267% | 133% | 56.3% | 95.7% | 94.8% | 182% | 138% | 167% | 97.6% | 68.2% | 239% | 173% | 68.5% | 76.3% |
| C=CCNC1=C2C[C@@H](C)C[C@H](OC)[C@H](O)[C@@H](C)/C=C(\C)[C@H](OC(N)=O)[C@@H](OC)/C=C\C=C(/C)C(=O)NC(=CC1=O)C2=O [Tanespimycin] + CCc1ccc(CCOc2ccc(CC3SC(=O)NC3=O)cc2)nc1 [pioglitazone] (first compound 0.002 µM, partner dose 2 µM) | 160% | 94.1% | 37.6% | 119% | 36.5% | 122% | 33.8% | 133% | 59.5% | 80.3% | 312% | 94.6% | 161% | 37.9% | 120% | 237% | 79.2% | 53.5% |
| OCc1c[nH]c2ccccc12 [Indole-3-carbinol] + c1cc(-c2cnn3cc(-c4ccc(OCCN5CCCCC5)cc4)cnc23)ccn1 [Dorsomorphin] (first compound 0.8 µM, partner dose 0.4 µM) | 94.7% | 130% | 98.4% | 107% | 58.4% | 148% | 134% | 48.7% | 95.4% | 60.2% | 146% | 193% | 104% | 21.3% | 48.3% | 77.9% | 50.7% | 143% |
| OCc1c[nH]c2ccccc12 [Indole-3-carbinol] + O=c1cc(-c2cccc3c2Sc2ccccc2S3)oc(N2CCOCC2)c1 [KU55933] (first compound 0.8 µM, partner dose 1 µM) | 104% | 194% | 23% | 145% | 28% | 127% | 33.3% | 87% | 127% | 69.7% | 127% | 57.7% | 126% | 83.8% | 115% | 33.1% | 103% | 152% |
| CC(=O)c1c(C)c2cnc(Nc3ccc(N4CCNCC4)cn3)nc2n(C2CCCC2)c1=O [palbociclib] + N#Cc1c(O)c2c(-c3ccc(-c4ccccc4O)cc3)csc2[nH]c1=O [A769662] (first compound 0.04 µM, partner dose 2 µM) | 59.6% | 106% | 244% | 66.7% | 54.7% | 70.7% | 107% | 145% | 105% | 39.5% | 44.1% | 231% | 181% | 66.3% | 62.7% | 103% | 246% | 168% |
| CC(=O)c1c(C)c2cnc(Nc3ccc(N4CCNCC4)cn3)nc2n(C2CCCC2)c1=O [palbociclib] + COc1cc(N2CCC(N3CCN(C)CC3)CC2)ccc1Nc1ncc(Cl)c(Nc2ccccc2S(=O)(=O)C(C)C)n1 [NVP-TAE684] (first compound 0.04 µM, partner dose 0.08 µM) | 172% | 42.1% | 144% | 58% | 230% | 52% | 92% | 74.8% | 75.6% | 43.8% | 57.8% | 130% | 210% | 124% | 105% | 103% | 143% | 120% |
| CC(=O)c1c(C)c2cnc(Nc3ccc(N4CCNCC4)cn3)nc2n(C2CCCC2)c1=O [palbociclib] + O=C1NC(=O)/C(=C/c2ccc(-c3ccc(F)cc3O)o2)S1 [AS252424] (first compound 0.04 µM, partner dose 1 µM) | 111% | 39.5% | 156% | 148% | 160% | 302% | 44% | 147% | 93.9% | 137% | 54.1% | 65.8% | 112% | 63.6% | 131% | 205% | 636% | 247% |
| CC(=O)c1c(C)c2cnc(Nc3ccc(N4CCNCC4)cn3)nc2n(C2CCCC2)c1=O [palbociclib] + O=C(Nc1ccccc1)c1cc([N+](=O)[O-])ccc1Cl [GW9662] (first compound 0.04 µM, partner dose 2 µM) | 139% | 67.3% | 156% | 124% | 103% | 161% | 81.8% | 96.3% | 66.8% | 90.5% | 134% | 174% | 94.6% | 153% | 70.4% | 111% | 108% | 213% |
| CC(=O)c1c(C)c2cnc(Nc3ccc(N4CCNCC4)cn3)nc2n(C2CCCC2)c1=O [palbociclib] + COc1ccc(-c2ccc3c(N4CCOCC4)nc(N4C[C@@H](C)O[C@@H](C)C4)nc3n2)cc1CO [KU0063794] (first compound 0.04 µM, partner dose 0.02 µM) | 109% | 41.4% | 90% | 127% | 54.5% | 131% | 39.5% | 42.1% | 89.7% | 180% | 99.7% | 255% | 129% | 62.8% | 37% | 82.1% | 110% | 319% |
| OCc1c[nH]c2ccccc12 [Indole-3-carbinol] + O=S(=O)(c1ccccc1)N(CC(F)(F)F)c1ccc(C(O)(C(F)(F)F)C(F)(F)F)cc1 [T0901317] (first compound 0.8 µM, partner dose 1.4 µM) | 212% | 134% | 149% | 105% | 47.3% | 106% | 169% | 131% | 174% | 52.6% | 46.9% | 136% | 183% | 87% | 18.2% | 72.5% | 67.1% | 133% |
| Clc1ccc(Nc2nnc(Cc3ccncc3)c3ccccc23)cc1 [vatalanib] + COc1ccc(COc2ccc(Cc3cnc(N)nc3N)cc2OC)cc1 [GW2580] (first compound 2 µM, partner dose 1 µM) | 181% | 140% | 224% | 106% | 38.6% | 120% | 281% | 87.7% | 89.6% | 66.3% | 50.3% | 80.8% | 88.9% | 350% | 379% | 209% | 166% | 139% |
| Clc1ccc(Nc2nnc(Cc3ccncc3)c3ccccc23)cc1 [vatalanib] + Cn1cc(/C=C2\C(=O)Nc3cccnc32)c2ccccc21 [GW441756] (first compound 2 µM, partner dose 0.4 µM) | 181% | 72.3% | 84.6% | 209% | 45.3% | 122% | 213% | 95.1% | 75.2% | 132% | 105% | 96.7% | 142% | 138% | 29.7% | 226% | 100% | 168% |
| CC(=O)c1c(C)c2cnc(Nc3ccc(N4CCNCC4)cn3)nc2n(C2CCCC2)c1=O [palbociclib] + CC(C)CCN1c2nc(Nc3cc(F)c(O)c(F)c3)ncc2N(C)C(=O)C1C [BID1870] (first compound 0.04 µM, partner dose 0.2 µM) | 262% | 58.1% | 60.3% | 63.9% | 104% | 95.2% | 46.1% | 68.9% | 123% | 109% | 83.8% | 71.5% | 199% | 92.5% | 42.9% | 142% | 160% | 223% |
| Clc1ccc(Nc2nnc(Cc3ccncc3)c3ccccc23)cc1 [vatalanib] + O=C1NC(=O)/C(=C/c2ccc(-c3ccc(F)cc3O)o2)S1 [AS252424] (first compound 2 µM, partner dose 1 µM) | 79.9% | 80.6% | 55.4% | 141% | 109% | 60.5% | 83.4% | 33.9% | 130% | 78.8% | 90.9% | 120% | 147% | 96.1% | 62.6% | 66.5% | 48.8% | 36.8% |

Exported with bars between the fields: part of the list above.
SMILES | cleaved PARP positive nuclei fraction [1] | cleaved PARP positive nuclei fraction [2] | cleaved PARP positive nuclei fraction [3] | cleaved PARP positive nuclei fraction [4] | cleaved PARP positive nuclei fraction [5] | cleaved PARP positive nuclei fraction [6] | cleaved PARP positive nuclei fraction [7] | cleaved PARP positive nuclei fraction [8] | cleaved PARP positive nuclei fraction [9] | cleaved PARP positive nuclei fraction [10] | cleaved PARP positive nuclei fraction [11] | cleaved PARP positive nuclei fraction [12] | cleaved PARP positive nuclei fraction [13] | cleaved PARP positive nuclei fraction [14] | cleaved PARP positive nuclei fraction [15] | cleaved PARP positive nuclei fraction [16] | cleaved PARP positive nuclei fraction [17] | cleaved PARP positive nuclei fraction [18]
CC(=O)c1c(C)c2cnc(Nc3ccc(N4CCNCC4)cn3)nc2n(C2CCCC2)c1=O [palbociclib] + N#Cc1c(O)c2c(-c3ccc(-c4ccccc4O)cc3)csc2[nH]c1=O [A769662] (first compound 0.04 µM, partner dose 2 µM) | 59.6% | 106% | 244% | 66.7% | 54.7% | 70.7% | 107% | 145% | 105% | 39.5% | 44.1% | 231% | 181% | 66.3% | 62.7% | 103% | 246% | 168%
CC(=O)c1c(C)c2cnc(Nc3ccc(N4CCNCC4)cn3)nc2n(C2CCCC2)c1=O [palbociclib] + O=C1NC(=O)/C(=C/c2ccc(-c3ccc(F)cc3O)o2)S1 [AS252424] (first compound 0.04 µM, partner dose 1 µM) | 111% | 39.5% | 156% | 148% | 160% | 302% | 44% | 147% | 93.9% | 137% | 54.1% | 65.8% | 112% | 63.6% | 131% | 205% | 636% | 247%
Clc1ccc(Nc2nnc(Cc3ccncc3)c3ccccc23)cc1 [vatalanib] + O=C1NC(=O)/C(=C/c2ccc(-c3ccc(F)cc3O)o2)S1 [AS252424] (first compound 2 µM, partner dose 1 µM) | 79.9% | 80.6% | 55.4% | 141% | 109% | 60.5% | 83.4% | 33.9% | 130% | 78.8% | 90.9% | 120% | 147% | 96.1% | 62.6% | 66.5% | 48.8% | 36.8%
